Source: PMC9120014
No constants are given. Whether binding was seen depends on the method and setting. Binding seen in cells or lysates may run through a third protein. Some entries that bind do so weakly or less than the wild type.

Protein sequences, listed by entry. Tags and fused reporters are not part of them.
UniProt P63013: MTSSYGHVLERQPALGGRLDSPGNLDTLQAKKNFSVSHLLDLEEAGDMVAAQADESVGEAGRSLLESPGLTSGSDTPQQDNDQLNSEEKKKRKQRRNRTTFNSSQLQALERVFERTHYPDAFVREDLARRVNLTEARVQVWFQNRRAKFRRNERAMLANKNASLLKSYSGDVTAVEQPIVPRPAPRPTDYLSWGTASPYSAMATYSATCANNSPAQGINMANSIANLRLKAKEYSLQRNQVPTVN
UniProt Q8BUN5: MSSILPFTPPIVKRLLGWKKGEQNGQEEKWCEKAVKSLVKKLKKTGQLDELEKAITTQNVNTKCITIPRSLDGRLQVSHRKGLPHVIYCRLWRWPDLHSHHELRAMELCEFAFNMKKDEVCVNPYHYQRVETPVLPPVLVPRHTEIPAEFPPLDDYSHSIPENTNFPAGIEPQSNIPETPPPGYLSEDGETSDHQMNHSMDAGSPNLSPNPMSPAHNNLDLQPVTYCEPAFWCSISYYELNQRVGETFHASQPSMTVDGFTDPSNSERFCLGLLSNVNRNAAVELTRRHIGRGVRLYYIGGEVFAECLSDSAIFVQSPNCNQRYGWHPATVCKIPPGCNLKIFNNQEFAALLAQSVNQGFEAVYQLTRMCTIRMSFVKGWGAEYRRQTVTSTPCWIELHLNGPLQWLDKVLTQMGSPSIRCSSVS

Target: Prrx1 (paired related homeobox 1) (mouse (endogenous in MEF)) (UniProt P63013)
Experiment: co-IP; Prrx1 precipitated from MEFs after sonication of the genome to 100 bp in length; Smad3 detected in the precipitate; repeated three times

binding: binds
Substance: Smad3 (from UniProt Q8BUN5 1-425)
